# Reference: the supplement of paper PMC8728848
# Some of the results follow.
# B1: PX14343C-bfa-541-26-541 (Bacteroides fragilis) (protein)
# chain: KAPLDEIADDSFWSDETLVKYYVNDLYSEISVDGLQLQENRSDNSVSAQRDKYRASWFKFNYDMVSASDPQDDDVWEDYYVKVRKCNRFFERIGTSTIEESEKSRLTGEVHFLRAMFYFEMVKRYGGVILLDKVLTMEDNWEIPRSSEKECYDFILEDLKKATEMLPASYGSREKGRATKGAAYALKSRVELYDKRYEDVIKSCAEVYKLGYELVDGTTPEKYRSIWWTTNKDNKEIIFDVQYKSPDVYNNMMVCNMVTYINDKYGDRGWGGLGPTQELIDAFEMADGTPATQYSQAPADQVFDINTCGIYEGREPRFYANIVFHGSQIFFNADKGAVTVDRYLMDTPDKGDGSLTGYNVWKWIDYDNYNYPYAGAGSPDFSTNWIILRYAEIYLNDAEARLETGDVEGARKAVNMIRQRVGLPDLTESDPEKLRELIRKERRIEFAFEEQRFYDVRRWKIGPETQTTLHGVRFVSPTEFKVTKTDIRTWNDRLYLTPVPHDEIVRSSVLKQNLGY
# Columns and labels:
# Assay in all cases: glycan array binding signal (z-score within array); higher = stronger binding
# Conditions in all cases: glycan notation: IUPAC condensed, linker removed
# [1] = molecular target: GlcNAc(b1-4)GlcNAc(b1-4)GlcNAc(b1-4)GlcNAc(b1-4)GlcNAc(b1-4)GlcNAc
# Method in brief: (§1)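 Glycan array data were curated from 3228 arrays in the Consortium for Functional Glycomics database and kept only where the protein sequence was available. Glycan names were converted to IUPAC-condensed notation, and columns mapping to the same glycan were averaged. The binding signal is a within-array Z-score, averaged across arrays of the same protein sequence at different concentrations or buffers and across linkers. Negative Z-scores can be read as non-binding.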
# [2] = molecular target: GlcNAc(b1-4)[GlcNAc(b1-6)]GalNAc
# Method in brief: as §1
# [3] = molecular target: GlcNAc(b1-6)Gal(b1-4)GlcNAc
# Method in brief: as §1
# [4] = molecular target: GlcNAc(b1-6)GalNAc
# Method in brief: as §1
# [5] = molecular target: GlcNAc6S(b1-3)Gal(b1-4)GlcNAc
# Method in brief: as §1
# [6] = molecular target: Kdn(a2-3)Gal(b1-3)GalNAc
# Method in brief: as §1
# [7] = molecular target: Kdn(a2-3)Gal(b1-3)GlcNAc
# Method in brief: as §1
# [8] = molecular target: Kdn(a2-3)Gal(b1-4)Glc
# Method in brief: as §1
# [9] = molecular target: Kdn(a2-3)Gal(b1-4)GlcNAc
# Method in brief: as §1
# [10] = molecular target: Kdn(a2-3)Gal(b1-4)[Fuc(a1-3)]GlcNAc
# Method in brief: as §1
# [11] = molecular target: Kdn(a2-6)Gal(b1-4)GlcNAc
# Method in brief: as §1
# [12] = molecular target: Man(a1-2)Man(a1-2)Man(a1-3)Man
# Method in brief: as §1
# [13] = molecular target: Man(a1-2)Man(a1-2)Man(a1-6)[Man(a1-3)]Man
# Method in brief: as §1
# [14] = molecular target: Man(a1-2)Man(a1-3)Man
# Method in brief: as §1
# [15] = molecular target: Man(a1-2)Man(a1-3)[Man(a1-2)Man(a1-6)]Man
# Method in brief: as §1
# [16] = molecular target: Man(a1-2)Man(a1-3)[Man(a1-2)Man(a1-6)]Man(a1-6)[Man(a1-2)Man(a1-2)Man(a1-3)]Man
# Method in brief: as §1
# [17] = molecular target: Man(a1-2)Man(a1-3)[Man(a1-2)Man(a1-6)]Man(a1-6)[Man(a1-2)Man(a1-2)Man(a1-3)]Man(b1-4)GlcNAc(b1-4)GlcNAc
# Method in brief: as §1
# [18] = molecular target: Man(a1-2)Man(a1-3)[Man(a1-6)]Man(a1-6)[Man(a1-2)Man(a1-3)]Man(b1-4)GlcNAc(b1-4)GlcNAc
# Method in brief: as §1
# [19] = molecular target: Man(a1-2)Man(a1-6)[Man(a1-3)]Man(a1-6)[Man(a1-2)Man(a1-2)Man(a1-3)]Man
# Method in brief: as §1
# [20] = molecular target: Man(a1-2)Man(a1-6)[Man(a1-3)]Man(a1-6)[Man(a1-2)Man(a1-2)Man(a1-3)]Man(b1-4)GlcNAc(b1-4)GlcNAc
# Method in brief: as §1
# [21] = molecular target: Man(a1-3)[Man(a1-6)]Man
# Method in brief: as §1
# [22] = molecular target: Man(a1-3)[Man(a1-6)]Man(a1-6)[Man(a1-2)Man(a1-3)]Man(b1-4)GlcNAc(b1-4)GlcNAc
# Method in brief: as §1
# [23] = molecular target: Man(a1-3)[Man(a1-6)]Man(a1-6)[Man(a1-3)]Man
# Method in brief: as §1
# [24] = molecular target: Man(a1-3)[Man(a1-6)]Man(a1-6)[Man(a1-3)]Man(b1-4)GlcNAc(b1-4)GlcNAc
# Method in brief: as §1
# [25] = molecular target: Man(a1-3)[Man(a1-6)]Man(b1-4)GlcNAc(b1-4)GlcNAc
# Method in brief: as §1
# [26] = molecular target: Man(a1-3)[Man(a1-6)]Man(b1-4)GlcNAc(b1-4)[Fuc(a1-6)]GlcNAc
# Method in brief: as §1
# [27] = molecular target: Man(a1-6)Man
# Method in brief: as §1
# [28] = molecular target: Man(b1-4)GlcNAc
# Method in brief: as §1
# [29] = molecular target: MurNAc(b1-4)GlcNAc
# Method in brief: as §1
# [30] = molecular target: Neu5Ac(a2-3)Gal
# Method in brief: as §1
# [31] = molecular target: Neu5Ac(a2-3)Gal(b1-3)GalNAc
# Method in brief: as §1
# [32] = molecular target: Neu5Ac(a2-3)Gal(b1-3)GalNAc(b1-3)Gal(a1-4)Gal(b1-4)Glc
# Method in brief: as §1
# [33] = molecular target: Neu5Ac(a2-3)Gal(b1-3)GalNAc(b1-4)[Neu5Ac(a2-3)]Gal(b1-4)Glc
# Method in brief: as §1
# [34] = molecular target: Neu5Ac(a2-3)Gal(b1-3)GalNAc(b1-4)[Neu5Ac(a2-8)Neu5Ac(a2-3)]Gal(b1-4)Glc
# Method in brief: as §1
# [35] = molecular target: Neu5Ac(a2-3)Gal(b1-3)GalNAc6S
# Method in brief: as §1
# [36] = molecular target: Neu5Ac(a2-3)Gal(b1-3)GlcNAc
# Method in brief: as §1
# [37] = molecular target: Neu5Ac(a2-3)Gal(b1-3)GlcNAc(b1-2)Man
# Method in brief: as §1
# [38] = molecular target: Neu5Ac(a2-3)Gal(b1-3)GlcNAc(b1-2)Man(a1-3)[GlcNAc(b1-4)][Neu5Ac(a2-3)Gal(b1-3)GlcNAc(b1-2)Man(a1-6)]Man(b1-4)GlcNAc(b1-4)GlcNAc
# Method in brief: as §1
# [39] = molecular target: Neu5Ac(a2-3)Gal(b1-3)GlcNAc(b1-2)Man(a1-3)[Neu5Ac(a2-3)Gal(b1-3)GlcNAc(b1-2)Man(a1-6)]Man(b1-4)GlcNAc(b1-4)GlcNAc
# Method in brief: as §1
# [40] = molecular target: Neu5Ac(a2-3)Gal(b1-3)GlcNAc(b1-3)Gal(b1-3)GlcNAc
# Method in brief: as §1
# [41] = molecular target: Neu5Ac(a2-3)Gal(b1-3)GlcNAc(b1-3)Gal(b1-4)GlcNAc
# Method in brief: as §1
# [42] = molecular target: Neu5Ac(a2-3)Gal(b1-3)GlcNAc(b1-3)GalNAc
# Method in brief: as §1
# [43] = molecular target: Neu5Ac(a2-3)Gal(b1-3)GlcNAc(b1-4)Gal(b1-4)Glc
# Method in brief: as §1
# [44] = molecular target: Neu5Ac(a2-3)Gal(b1-3)GlcNAc(b1-6)GalNAc
# Method in brief: as §1
# [45] = molecular target: Neu5Ac(a2-3)Gal(b1-3)GlcNAc6S
# Method in brief: as §1
binder,measurement,setting,value
B1,glycan array binding signal (z-score),[1],-0.569
same,glycan array binding signal (z-score),[2],0.904
same,glycan array binding signal (z-score),[3],-1.19
same,glycan array binding signal (z-score),[4],0.031
same,glycan array binding signal (z-score),[5],-0.281
same,glycan array binding signal (z-score),[6],-0.183
same,glycan array binding signal (z-score),[7],-0.157
same,glycan array binding signal (z-score),[8],-0.776
same,glycan array binding signal (z-score),[9],-0.977
same,glycan array binding signal (z-score),[10],1.81
same,glycan array binding signal (z-score),[11],-0.189
same,glycan array binding signal (z-score),[12],-0.962
same,glycan array binding signal (z-score),[13],-0.015
same,glycan array binding signal (z-score),[14],-0.305
same,glycan array binding signal (z-score),[15],1.01
same,glycan array binding signal (z-score),[16],-0.595
same,glycan array binding signal (z-score),[17],0.285
same,glycan array binding signal (z-score),[18],0.476
same,glycan array binding signal (z-score),[19],-0.799
same,glycan array binding signal (z-score),[20],-0.535
same,glycan array binding signal (z-score),[21],-0.524
same,glycan array binding signal (z-score),[22],0.931
same,glycan array binding signal (z-score),[23],0.127
same,glycan array binding signal (z-score),[24],-0.482
same,glycan array binding signal (z-score),[25],-0.046
same,glycan array binding signal (z-score),[26],-0.814
same,glycan array binding signal (z-score),[27],0.137
same,glycan array binding signal (z-score),[28],-0.535
same,glycan array binding signal (z-score),[29],-0.32
same,glycan array binding signal (z-score),[30],-0.737
same,glycan array binding signal (z-score),[31],-0.143
same,glycan array binding signal (z-score),[32],0.978
same,glycan array binding signal (z-score),[33],0.2
same,glycan array binding signal (z-score),[34],-1.04
same,glycan array binding signal (z-score),[35],-0.571
same,glycan array binding signal (z-score),[36],-0.292
same,glycan array binding signal (z-score),[37],-0.541
same,glycan array binding signal (z-score),[38],-0.943
same,glycan array binding signal (z-score),[39],-0.219
same,glycan array binding signal (z-score),[40],-0.527
same,glycan array binding signal (z-score),[41],-0.242
same,glycan array binding signal (z-score),[42],0.246
same,glycan array binding signal (z-score),[43],-0.563
same,glycan array binding signal (z-score),[44],-0.782
same,glycan array binding signal (z-score),[45],0.836

# 2 records drawn at random from the list so far, as already listed:
binder,measurement,setting,value
B1,glycan array binding signal (z-score),[33],0.2
same,glycan array binding signal (z-score),[28],-0.535
